For this test, the target named is PatA (Phosphatidyl-myo-inositol mannosides AcylTransferase A) from Mycobacterium smegmatis, truncated version lacking the first 12 residues (Mycobacterium smegmatis) (UniProt A0QWG5). Briefly: crystal structure; three crystal forms of PatA with bound palmitate (C2, P21, P42212; two, four and one molecules in the asymmetric unit); inspection of the crystal structures; both purified.

No constants are given. Whether binding was seen depends on the method and setting. Sequences can lack the tags named with a protein.

B1: PatA (Phosphatidyl-myo-inositol mannosides AcylTransferase A) from Mycobacterium smegmatis, truncated version lacking the first 12 residues (enzyme, UniProt A0QWG5 13-304)
chain: VTDLGYAAGWRLVRAMPEAMAQGVFGAGARYAARNGGPEQLRRNLARVVGKPPADVPDDLIRASLASYARYWREAFRLPAMDHGRLGEQLDVIDIDHLWSALDAGRGAVLALPHSGNWDMAGVWLVQNYGPFTTVAERLKPESLYRRFVEYRESLGFEVLPLTGGERPPFEVLAERLTDNRPICLMAERDLTRSGVQVDFFGEATRMPAGPAKLAIETGAALFPVHCWFEGDGWGMRVYPELDTSSGDVTAITQALADRFAANIATYPADWHMLQPQWIADLSDERRARLGT
Regarding B1, the binding entry is listed as “no binding”.

The values are drawn from publication PMC4792965.
